Measurements reported in PubChem BioAssay AID1259254 (NCATS, 2017).
Assay: 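Finding genes that stop cells copying their DNA twice in one cycle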 (primary screen). System: human HCT116 colorectal cancer cells. Reagents: single siRNA against human genes. Duration: 3 days. Measured: 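Nuclei stained with Hoechst and imaged; cell-cycle phase assigned by DNA content; G2 share scaled per plate, non-targeting siRNA 0%, GMNN siRNA 100%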. Scale: G2 robust z-score: higher = more G2 cells, more excess DNA replication. Call rule: 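An siRNA counts as active if its G2 robust z-score lies at least 5 MADs above the screen median; here such calls match roughly 38% of GMNN control or more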.
The deposit covers about 59,000 reagents; shown is an unselected part. About 1,550 of all reagents (2.6%) were called active. 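G2 share is only a proxy for re-replication; each gene was hit by three separate siRNAs, and active genes were retested.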 Entries without a mark were called inactive. Not all columns of the deposit are shown. Reagent sequences are not shown. The record does not give: the amount of reagent.

{"gene":"NTHL1 (nth like DNA glycosylase 1)","PubChem SID":"SID160723964","G2 robust z-score":-0.448}
{"gene":"NTHL1 (nth like DNA glycosylase 1)","PubChem SID":"SID160778264","G2 robust z-score":2.11}
{"gene":"NTHL1 (nth like DNA glycosylase 1)","PubChem SID":"SID160778265","G2 robust z-score":-0.212}
{"gene":"LOC732272 (retired record)","PubChem SID":"SID160727764","G2 robust z-score":0.782}
{"gene":"LOC732272 (retired record)","PubChem SID":"SID160774405","G2 robust z-score":1.43}
{"gene":"LOC732272 (retired record)","PubChem SID":"SID160774406","G2 robust z-score":3.52}
{"gene":"ING2 (inhibitor of growth family member 2)","PubChem SID":"SID160775843","G2 robust z-score":1.52}
{"gene":"ING2 (inhibitor of growth family member 2)","PubChem SID":"SID160775844","G2 robust z-score":-0.399}
{"gene":"ING2 (inhibitor of growth family member 2)","PubChem SID":"SID160775845","G2 robust z-score":3.54}
{"gene":"ZNF597 (zinc finger protein 597)","PubChem SID":"SID160758362","G2 robust z-score":"5.86 (active)"}
{"gene":"ZNF597 (zinc finger protein 597)","PubChem SID":"SID160758363","G2 robust z-score":3.47}
{"gene":"ZNF597 (zinc finger protein 597)","PubChem SID":"SID160758364","G2 robust z-score":1.42}
{"gene":"LYPD8 (LY6/PLAUR domain containing 8)","PubChem SID":"SID160769959","G2 robust z-score":-0.206}
{"gene":"LYPD8 (LY6/PLAUR domain containing 8)","PubChem SID":"SID160769960","G2 robust z-score":0.248}
{"gene":"LYPD8 (LY6/PLAUR domain containing 8)","PubChem SID":"SID160769961","G2 robust z-score":-0.195}
{"gene":"NSMCE4A (NSE4A component of SMC5/6 complex)","PubChem SID":"SID160742152","G2 robust z-score":1.15}
{"gene":"NSMCE4A (NSE4A component of SMC5/6 complex)","PubChem SID":"SID160742154","G2 robust z-score":0.132}
{"gene":"NSMCE4A (NSE4A component of SMC5/6 complex)","PubChem SID":"SID160742155","G2 robust z-score":"5.44 (active)"}
